PubChem BioAssay AID1259254, NCATS | 2017

- Screen: 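Finding genes that stop cells copying their DNA twice in one cycle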 (primary screen)
- System: human HCT116 colorectal cancer cells
- Reagent: single siRNA against human genes
- Duration: 3 days
- Read-out: 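Imaged Hoechst DNA stain sorts each cell into a cycle phase by DNA amount; per plate, G2 fraction set to 0% for non-targeting and 100% for GMNN siRNA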
- Reading the numbers: G2 robust z-score and G2 cells, % of GMNN control: higher = more G2 cells, more excess DNA replication
- Active means: 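An siRNA counts as active if its G2 robust z-score lies at least 5 MADs above the screen median; here such calls match roughly 38% of GMNN control or more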
Here is an unselected part of about 59,000 deposited reagents. In the full data, about 1,550 (2.6%) got an active call. 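G2 share is only a proxy for re-replication; each gene was hit by three separate siRNAs, and active genes were retested.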 Unmarked entries are inactive. The numbers tell different reagents against one gene apart. Not all columns of the deposit are shown. The record does not give: the amount of reagent.

{"gene": "PRKN (parkin RBR E3 ubiquitin protein ligase)", "reagent no.": 1, "G2 robust z-score": -0.0839, "G2 cells, % of GMNN control": 2.38}
{"gene": "PRKN (parkin RBR E3 ubiquitin protein ligase)", "reagent no.": 2, "G2 robust z-score": 1.02, "G2 cells, % of GMNN control": 10.2}
{"gene": "PRKN (parkin RBR E3 ubiquitin protein ligase)", "reagent no.": 3, "G2 robust z-score": 2.61, "G2 cells, % of GMNN control": 21.3}
{"gene": "NUTM2E (NUT family member 2E)", "reagent no.": 1, "G2 robust z-score": -0.677, "G2 cells, % of GMNN control": -1.8}
{"gene": "NUTM2E (NUT family member 2E)", "reagent no.": 2, "G2 robust z-score": -0.624, "G2 cells, % of GMNN control": -1.43}
{"gene": "NUTM2E (NUT family member 2E)", "reagent no.": 3, "G2 robust z-score": -0.627, "G2 cells, % of GMNN control": -1.44}
{"gene": "KCNIP2 (potassium voltage-gated channel interacting protein 2)", "reagent no.": 1, "G2 robust z-score": 0.0411, "G2 cells, % of GMNN control": 3.26}
{"gene": "KCNIP2 (potassium voltage-gated channel interacting protein 2)", "reagent no.": 2, "G2 robust z-score": -0.873, "G2 cells, % of GMNN control": -3.18}
{"gene": "KCNIP2 (potassium voltage-gated channel interacting protein 2)", "reagent no.": 3, "G2 robust z-score": -1.46, "G2 cells, % of GMNN control": -7.29}
{"gene": "KCNH7 (potassium voltage-gated channel subfamily H member 7)", "reagent no.": 1, "G2 robust z-score": 0.147, "G2 cells, % of GMNN control": 4}
{"gene": "KCNH7 (potassium voltage-gated channel subfamily H member 7)", "reagent no.": 2, "G2 robust z-score": -0.357, "G2 cells, % of GMNN control": 0.453}
{"gene": "KCNH7 (potassium voltage-gated channel subfamily H member 7)", "reagent no.": 3, "G2 robust z-score": -0.62, "G2 cells, % of GMNN control": -1.4}
